This is one part of the list. Only hits are listed; about a third recur on repeated control peptides.
How the values were obtained:
Assay in all cases: PRISMA enrichment of interactor (LFQ) in peptide spot vs all other peptide spots (log2 fold change); higher = stronger / more specific binding of the interactor to the peptide
AATF, Q9NY61 = biological target: AATF, Q9NY61
Protocol: (§1)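 PRISMA: 15-aa overlapping tiles (offset 8 aa) of 60 microproteins, plus SOS1/GLUT1 control peptides, were spot-synthesized on cellulose membranes in triplicate. Membranes were incubated with benzonase-treated HEK293T lysate, and bound proteins were identified by LC-MS/MS with LFQ. Enrichment is the log2 fold change of each protein in one spot versus all other spots. Only interactors passing the significance cutoff are listed.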

Protein sequences, listed by entry. Tags and fused reporters are not part of them.
FLNA, P21333, UniProt P21333, whole entry: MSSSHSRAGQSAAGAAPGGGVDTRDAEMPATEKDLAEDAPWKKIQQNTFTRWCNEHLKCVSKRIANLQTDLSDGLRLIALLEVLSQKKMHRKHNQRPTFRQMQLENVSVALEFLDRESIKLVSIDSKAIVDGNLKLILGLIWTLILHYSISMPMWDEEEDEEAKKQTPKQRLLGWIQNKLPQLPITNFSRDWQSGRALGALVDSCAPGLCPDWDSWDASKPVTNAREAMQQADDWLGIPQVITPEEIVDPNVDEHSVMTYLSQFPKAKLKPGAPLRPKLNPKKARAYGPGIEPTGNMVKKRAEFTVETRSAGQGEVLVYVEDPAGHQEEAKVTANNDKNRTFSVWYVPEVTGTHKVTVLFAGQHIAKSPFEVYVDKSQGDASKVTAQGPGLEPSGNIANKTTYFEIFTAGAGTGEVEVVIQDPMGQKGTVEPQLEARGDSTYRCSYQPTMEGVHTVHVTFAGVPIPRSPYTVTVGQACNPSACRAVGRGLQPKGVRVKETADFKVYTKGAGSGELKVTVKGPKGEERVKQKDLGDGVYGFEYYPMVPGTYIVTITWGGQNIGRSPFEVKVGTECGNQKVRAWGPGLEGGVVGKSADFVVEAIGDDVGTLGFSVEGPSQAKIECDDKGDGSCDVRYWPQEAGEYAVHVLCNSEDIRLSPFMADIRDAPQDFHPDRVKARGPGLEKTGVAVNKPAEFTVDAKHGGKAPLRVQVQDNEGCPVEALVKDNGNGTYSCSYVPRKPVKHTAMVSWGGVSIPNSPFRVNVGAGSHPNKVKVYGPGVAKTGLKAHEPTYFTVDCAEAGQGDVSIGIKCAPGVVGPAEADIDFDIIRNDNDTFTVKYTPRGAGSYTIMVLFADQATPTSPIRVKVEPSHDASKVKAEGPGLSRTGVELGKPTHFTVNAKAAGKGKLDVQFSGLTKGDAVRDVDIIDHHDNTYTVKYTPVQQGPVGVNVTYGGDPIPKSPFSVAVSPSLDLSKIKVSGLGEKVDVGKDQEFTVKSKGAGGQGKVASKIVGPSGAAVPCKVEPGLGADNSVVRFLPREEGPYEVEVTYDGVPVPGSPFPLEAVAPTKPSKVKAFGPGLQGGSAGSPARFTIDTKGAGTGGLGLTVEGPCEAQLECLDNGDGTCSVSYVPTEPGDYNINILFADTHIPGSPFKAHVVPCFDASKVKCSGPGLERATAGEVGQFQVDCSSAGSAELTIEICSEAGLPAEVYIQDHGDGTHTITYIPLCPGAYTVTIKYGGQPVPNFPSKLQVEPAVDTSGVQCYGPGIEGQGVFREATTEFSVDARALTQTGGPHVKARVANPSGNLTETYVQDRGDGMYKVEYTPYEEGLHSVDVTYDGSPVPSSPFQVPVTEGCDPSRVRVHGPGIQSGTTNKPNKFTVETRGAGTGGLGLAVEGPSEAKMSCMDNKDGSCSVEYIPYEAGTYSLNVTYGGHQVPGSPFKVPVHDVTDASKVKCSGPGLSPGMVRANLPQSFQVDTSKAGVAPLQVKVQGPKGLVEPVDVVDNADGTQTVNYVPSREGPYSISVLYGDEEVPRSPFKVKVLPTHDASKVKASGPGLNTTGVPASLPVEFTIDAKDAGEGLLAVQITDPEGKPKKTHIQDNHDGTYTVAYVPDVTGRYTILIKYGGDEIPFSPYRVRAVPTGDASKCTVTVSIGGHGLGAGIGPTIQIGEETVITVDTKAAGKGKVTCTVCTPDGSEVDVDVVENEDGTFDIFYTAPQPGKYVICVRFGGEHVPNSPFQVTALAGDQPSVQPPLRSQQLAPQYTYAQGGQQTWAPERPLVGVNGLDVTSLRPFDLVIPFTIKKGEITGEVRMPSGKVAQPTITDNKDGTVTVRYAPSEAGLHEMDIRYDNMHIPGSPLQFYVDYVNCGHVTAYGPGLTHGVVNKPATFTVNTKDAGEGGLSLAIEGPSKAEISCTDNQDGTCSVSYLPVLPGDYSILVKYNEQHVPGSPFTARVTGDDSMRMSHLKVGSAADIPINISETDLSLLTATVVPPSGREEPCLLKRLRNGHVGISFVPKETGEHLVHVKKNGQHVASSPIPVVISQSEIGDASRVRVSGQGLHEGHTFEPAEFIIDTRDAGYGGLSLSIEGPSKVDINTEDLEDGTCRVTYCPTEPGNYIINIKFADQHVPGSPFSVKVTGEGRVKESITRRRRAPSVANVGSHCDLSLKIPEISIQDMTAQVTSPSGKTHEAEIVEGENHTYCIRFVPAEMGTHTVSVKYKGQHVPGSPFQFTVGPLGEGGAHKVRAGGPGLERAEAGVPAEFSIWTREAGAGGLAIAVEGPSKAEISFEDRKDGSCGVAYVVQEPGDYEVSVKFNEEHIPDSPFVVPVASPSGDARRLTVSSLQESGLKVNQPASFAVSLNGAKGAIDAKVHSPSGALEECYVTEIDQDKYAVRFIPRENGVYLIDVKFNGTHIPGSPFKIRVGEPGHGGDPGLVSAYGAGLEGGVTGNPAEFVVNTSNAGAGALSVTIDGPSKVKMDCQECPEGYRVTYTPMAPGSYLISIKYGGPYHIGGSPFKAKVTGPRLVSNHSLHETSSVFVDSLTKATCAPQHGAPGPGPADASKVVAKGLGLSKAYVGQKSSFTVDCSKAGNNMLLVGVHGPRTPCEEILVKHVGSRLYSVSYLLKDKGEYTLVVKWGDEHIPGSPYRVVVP
NDUFA7, O95182, UniProt O95182, whole entry: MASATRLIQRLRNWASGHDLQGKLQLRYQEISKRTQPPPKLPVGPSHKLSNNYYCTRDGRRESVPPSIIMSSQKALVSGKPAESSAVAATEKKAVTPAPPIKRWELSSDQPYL
GNB1, P62873, UniProt P62873, whole entry: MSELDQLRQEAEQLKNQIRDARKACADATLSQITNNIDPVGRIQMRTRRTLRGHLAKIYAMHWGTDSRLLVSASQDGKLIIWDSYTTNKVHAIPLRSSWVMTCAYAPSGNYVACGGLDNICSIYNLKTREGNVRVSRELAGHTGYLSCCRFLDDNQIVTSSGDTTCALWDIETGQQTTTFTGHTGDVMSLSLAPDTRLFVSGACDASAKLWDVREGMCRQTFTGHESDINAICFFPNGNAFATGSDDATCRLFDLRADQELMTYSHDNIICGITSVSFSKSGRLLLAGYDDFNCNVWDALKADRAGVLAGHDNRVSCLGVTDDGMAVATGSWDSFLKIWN
PDHB, P11177, UniProt P11177, whole entry: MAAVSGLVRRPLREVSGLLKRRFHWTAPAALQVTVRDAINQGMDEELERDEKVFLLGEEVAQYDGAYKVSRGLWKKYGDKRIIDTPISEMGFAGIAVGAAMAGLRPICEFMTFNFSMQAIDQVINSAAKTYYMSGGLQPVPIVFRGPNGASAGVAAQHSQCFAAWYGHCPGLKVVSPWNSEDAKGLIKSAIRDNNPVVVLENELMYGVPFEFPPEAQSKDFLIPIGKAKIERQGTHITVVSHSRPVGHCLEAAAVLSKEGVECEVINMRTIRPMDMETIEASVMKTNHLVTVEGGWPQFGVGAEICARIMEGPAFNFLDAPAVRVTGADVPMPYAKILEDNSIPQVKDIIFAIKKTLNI

ATP5PB, P24539 = biological target: ATP5PB, P24539
Protocol: as §1

BCOR, Q6W2J9 = biological target: BCOR, Q6W2J9
Protocol: as §1

C18orf25, Q96B23 = biological target: C18orf25, Q96B23
Protocol: as §1

CENPF, P49454 = biological target: CENPF, P49454
Protocol: as §1

CKAP2, Q8WWK9 = biological target: CKAP2, Q8WWK9
Protocol: as §1

DDX27, Q96GQ7 = biological target: DDX27, Q96GQ7
Protocol: as §1

DIS3, Q9Y2L1 = biological target: DIS3, Q9Y2L1
Protocol: as §1

EIF6, P56537 = biological target: EIF6, P56537
Protocol: as §1

FAM83D, Q9H4H8 = biological target: FAM83D, Q9H4H8
Protocol: as §1

FGG, P02679 = biological target: FGG, P02679
Protocol: as §1

FLNA, P21333 = biological target: FLNA, P21333
Protocol: as §1

HK1, P19367 = biological target: HK1, P19367
Protocol: as §1

HP, P00738 = biological target: HP, P00738
Protocol: as §1

LARS2, Q15031 = biological target: LARS2, Q15031
Protocol: as §1

MOV10, Q9HCE1 = biological target: MOV10, Q9HCE1
Protocol: as §1

NDUFA7, O95182 = biological target: NDUFA7, O95182
Protocol: as §1

PFKL, P17858 = biological target: PFKL, P17858
Protocol: as §1

PRPF6, O94906 = biological target: PRPF6, O94906
Protocol: as §1

SARDH, Q9UL12 = biological target: SARDH, Q9UL12
Protocol: as §1

SEMG2, Q02383 = biological target: SEMG2, Q02383
Protocol: as §1

SLC25A24, Q6NUK1 = biological target: SLC25A24, Q6NUK1
Protocol: as §1

SMU1, Q2TAY7 = biological target: SMU1, Q2TAY7
Protocol: as §1

SNRNP40, Q96DI7 = biological target: SNRNP40, Q96DI7
Protocol: as §1

TAGLN2, P37802 = biological target: TAGLN2, P37802
Protocol: as §1

TM9SF3, Q9HD45 = biological target: TM9SF3, Q9HD45
Protocol: as §1

TMEM256-PLSCR3 = biological target: TMEM256-PLSCR3
Protocol: as §1

UTP18, Q9Y5J1 = biological target: UTP18, Q9Y5J1
Protocol: as §1

UTP23, Q9BRU9 = biological target: UTP23, Q9BRU9
Protocol: as §1

XPO7, Q9UIA9 = biological target: XPO7, Q9UIA9
Protocol: as §1

ZNF24, P17028 = biological target: ZNF24, P17028
Protocol: as §1

ZNF444, Q8N0Y2 = biological target: ZNF444, Q8N0Y2
Protocol: as §1

ZNF771, Q7L3S4 = biological target: ZNF771, Q7L3S4
Protocol: as §1

ABAT, P80404 = biological target: ABAT, P80404
Protocol: as §1

ACACA, Q13085 = biological target: ACACA, Q13085
Protocol: as §1

AKAP8L, Q9ULX6 = biological target: AKAP8L, Q9ULX6
Protocol: as §1

DCAF7, P61962 = biological target: DCAF7, P61962
Protocol: as §1

DNAJA2, O60884 = biological target: DNAJA2, O60884
Protocol: as §1

GLYR1, Q49A26 = biological target: GLYR1, Q49A26
Protocol: as §1

GNB1, P62873 = biological target: GNB1, P62873
Protocol: as §1

GYG1, P46976 = biological target: GYG1, P46976
Protocol: as §1

IVD, P26440 = biological target: IVD, P26440
Protocol: as §1

MAGT1, Q9H0U3 = biological target: MAGT1, Q9H0U3
Protocol: as §1

NOL9, Q5SY16 = biological target: NOL9, Q5SY16
Protocol: as §1

PDHB, P11177 = biological target: PDHB, P11177
Protocol: as §1

ROMO1, P60602 = biological target: ROMO1, P60602
Protocol: as §1

SEPTIN7, Q16181 = biological target: SEPTIN7, Q16181
Protocol: as §1

SF3A3, Q12874 = biological target: SF3A3, Q12874
Protocol: as §1

TOMM34, Q15785 = biological target: TOMM34, Q15785
Protocol: as §1

TRMT5, Q32P41 = biological target: TRMT5, Q32P41
Protocol: as §1

WARS, P23381 = biological target: WARS, P23381
Protocol: as §1

B1: JHDM1D-AS1 (peptide)
chain: SPRGIHHCRPLGGTN
B1 was tested, and the “PRISMA enrichment of interactor (log2)” value (AATF, Q9NY61) was 4.94, the “PRISMA enrichment of interactor (log2)” value (ATP5PB, P24539) was 4.79 and the “PRISMA enrichment of interactor (log2)” value (BCOR, Q6W2J9) was 7.31. The “PRISMA enrichment of interactor (log2)” value (C18orf25, Q96B23) was 5.18, the “PRISMA enrichment of interactor (log2)” value (CENPF, P49454) was 4.19 and the “PRISMA enrichment of interactor (log2)” value (CKAP2, Q8WWK9) was 6.24. For the same binder, the “PRISMA enrichment of interactor (log2)” value (DDX27, Q96GQ7) was 6.52, the “PRISMA enrichment of interactor (log2)” value (DIS3, Q9Y2L1) was 4.71 and the “PRISMA enrichment of interactor (log2)” value (EIF6, P56537) was 4.6. For the same binder, the “PRISMA enrichment of interactor (log2)” value (FAM83D, Q9H4H8) was 6.84, the “PRISMA enrichment of interactor (log2)” value (FGG, P02679) was 4.22 and the “PRISMA enrichment of interactor (log2)” value (FLNA, P21333) was 4.77. For the same binder, the “PRISMA enrichment of interactor (log2)” value (HK1, P19367) was 5.13, the “PRISMA enrichment of interactor (log2)” value (HP, P00738) was 4.54 and the “PRISMA enrichment of interactor (log2)” value (LARS2, Q15031) was 5.24. The “PRISMA enrichment of interactor (log2)” value (MOV10, Q9HCE1) was 10.3, the “PRISMA enrichment of interactor (log2)” value (NDUFA7, O95182) was 3.81 and the “PRISMA enrichment of interactor (log2)” value (PFKL, P17858) was 4.92. For the same binder, the “PRISMA enrichment of interactor (log2)” value (PRPF6, O94906) was 4.66, the “PRISMA enrichment of interactor (log2)” value (SARDH, Q9UL12) was 4.29 and the “PRISMA enrichment of interactor (log2)” value (SEMG2, Q02383) was 4.43. For the same binder, the “PRISMA enrichment of interactor (log2)” value (SLC25A24, Q6NUK1) was 9.35, the “PRISMA enrichment of interactor (log2)” value (SMU1, Q2TAY7) was 6.94 and the “PRISMA enrichment of interactor (log2)” value (SNRNP40, Q96DI7) was 5.35. The “PRISMA enrichment of interactor (log2)” value (TAGLN2, P37802) was 5.08, the “PRISMA enrichment of interactor (log2)” value (TM9SF3, Q9HD45) was 4.73 and the “PRISMA enrichment of interactor (log2)” value (TMEM256-PLSCR3) was 7.17. The “PRISMA enrichment of interactor (log2)” value (UTP18, Q9Y5J1) was 5.6, the “PRISMA enrichment of interactor (log2)” value (UTP23, Q9BRU9) was 6.8 and the “PRISMA enrichment of interactor (log2)” value (XPO7, Q9UIA9) was 5.26. For the same binder, the “PRISMA enrichment of interactor (log2)” value (ZNF24, P17028) was 6.64, the “PRISMA enrichment of interactor (log2)” value (ZNF444, Q8N0Y2) was 4.34 and the “PRISMA enrichment of interactor (log2)” value (ZNF771, Q7L3S4) was 7.41.

B2: PSMB8-AS1 (peptide)
chain: HELLVGSPLPDSASF
In the case of B2, the “PRISMA enrichment of interactor (log2)” value (ABAT, P80404) is reported as 3.6, the “PRISMA enrichment of interactor (log2)” value (ACACA, Q13085) is reported as 4.84 and the “PRISMA enrichment of interactor (log2)” value (AKAP8L, Q9ULX6) is reported as 5.36. The “PRISMA enrichment of interactor (log2)” value (CENPF, P49454) was 4.32, the “PRISMA enrichment of interactor (log2)” value (DCAF7, P61962) was 6.63 and the “PRISMA enrichment of interactor (log2)” value (DNAJA2, O60884) was 6.46. For the same binder, the “PRISMA enrichment of interactor (log2)” value (GLYR1, Q49A26) was 4.91, the “PRISMA enrichment of interactor (log2)” value (GNB1, P62873) was 7.21 and the “PRISMA enrichment of interactor (log2)” value (GYG1, P46976) was 5.35. The “PRISMA enrichment of interactor (log2)” value (IVD, P26440) was 5.99, the “PRISMA enrichment of interactor (log2)” value (MAGT1, Q9H0U3) was 5.47 and the “PRISMA enrichment of interactor (log2)” value (NOL9, Q5SY16) was 5.44. The “PRISMA enrichment of interactor (log2)” value (PDHB, P11177) was 4.39, the “PRISMA enrichment of interactor (log2)” value (ROMO1, P60602) was 4.05 and the “PRISMA enrichment of interactor (log2)” value (SEPTIN7, Q16181) was 4.38. The “PRISMA enrichment of interactor (log2)” value (SF3A3, Q12874) was 4.12, the “PRISMA enrichment of interactor (log2)” value (TOMM34, Q15785) was 5.34 and the “PRISMA enrichment of interactor (log2)” value (TRMT5, Q32P41) was 5.54. The “PRISMA enrichment of interactor (log2)” value (WARS, P23381) was 5.77.

Source: the supplement of paper PMC10032668
